The target of this assay is hCA VB. Put plainly: Stopped-flow CO2 hydrase assay. The assay is classed as biochemical, human. The settings on record: mean from 3 assays, read-out: K i hCA VB. On the procedure:
An Applied Photophysics stopped‐flow instrument was used to assay the CA‐catalyzed CO2 hydration activity. […] The uncatalyzed rates were determined in the same manner and subtracted from the total observed rates. Stock solutions of the inhibitor (0.1 mM) were prepared in distilled−deionized water, and dilutions up to 0.01 nM were done thereafter with the assay buffer. Inhibitor and enzyme solutions were preincubated together for 15 min at room temperature before the assay, to allow for the formation of the E − I complex. The inhibition constants were obtained by nonlinear least‐squares methods using PRISM 3 and the Cheng–Prusoff equation as reported earlier and represent the mean from at least three different determinations. All CA isoforms were recombinant proteins obtained in house, as reported earlier.

Take `CC(=O)Nc1nnc(S(N)(=O)=O)s1` [AAZ, acetazolamide, reference compound]: the Ki was found to be 63 ± 2 nM.

Values taken from article PMC12010950, “Discover the Power of Lithospermic Acid as Human Carbonic Anhydrase VA and Pancreatic Lipase Inhibitor Through In Silico and In Vitro Studies” (Archiv Der Pharmazie, 2025).
